In all, about 33,000 sequences were measured (“E-score (-0.5 to 0.5)”: median about -0.016, highest 2% from about 0.3 on). This is one part of the list.
Target: T1, Yer184c (UniProt P39961)
T1 sequence: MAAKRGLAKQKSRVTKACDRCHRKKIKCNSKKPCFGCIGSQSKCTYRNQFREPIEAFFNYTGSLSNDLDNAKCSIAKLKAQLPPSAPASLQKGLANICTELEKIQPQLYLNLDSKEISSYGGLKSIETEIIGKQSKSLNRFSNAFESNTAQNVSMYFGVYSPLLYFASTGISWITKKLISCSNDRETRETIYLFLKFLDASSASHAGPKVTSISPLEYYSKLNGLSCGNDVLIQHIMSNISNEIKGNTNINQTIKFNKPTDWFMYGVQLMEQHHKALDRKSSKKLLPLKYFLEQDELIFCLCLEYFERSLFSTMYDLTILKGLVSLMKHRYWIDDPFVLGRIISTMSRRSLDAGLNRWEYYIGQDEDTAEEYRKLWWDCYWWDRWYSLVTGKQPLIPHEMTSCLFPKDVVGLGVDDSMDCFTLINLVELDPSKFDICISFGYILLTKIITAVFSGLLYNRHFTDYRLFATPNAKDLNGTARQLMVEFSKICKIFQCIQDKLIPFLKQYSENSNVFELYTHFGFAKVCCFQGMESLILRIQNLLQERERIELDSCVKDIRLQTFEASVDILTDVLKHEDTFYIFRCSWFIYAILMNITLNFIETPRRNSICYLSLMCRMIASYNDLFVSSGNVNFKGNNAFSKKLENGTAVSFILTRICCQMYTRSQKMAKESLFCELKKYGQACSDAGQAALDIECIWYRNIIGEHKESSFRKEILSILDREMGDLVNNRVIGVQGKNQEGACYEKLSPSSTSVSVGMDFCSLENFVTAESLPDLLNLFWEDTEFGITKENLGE
Assay: PBM E-score (8-mer binding enrichment) (E-score (-0.5 to 0.5)); higher = stronger / more preferred TF binding
Conditions: protein concentration: 100 nM; construct: GST-full length
Summary of the method: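 Yeast transcription factors carrying a GST tag, as full-length proteins or DNA-binding domains, were produced by PURExpress in vitro transcription/translation. About 100-200 nM protein was applied to universal all-10-mer Agilent arrays, double-stranded by primer extension on fresh or once-stripped slides. Bound protein was detected with fluorescent anti-GST, and scans were normalised with masliner. The Universal PBM Analysis Suite gave each ungapped eight-base word, pooled with its reverse complement, an E-score, a modified Wilcoxon-Mann-Whitney statistic.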

| Sequence | PBM E-score |
| --- | --- |
| TCGACTAA | 0.0483 |
| AGGTACTA | 0.00502 |
| CAAACTTC | 0.077 |
| CCCTGGGC | -0.252 |
| CCGGGGCC | 0.238 |
| CCCCCCCC | -0.482 |
| TCGAGACA | -0.0512 |
| CATGACTA | -0.155 |
| AATTAATG | 0.22 |
| ACCTATCC | -0.00171 |
| CACTTAGC | -0.108 |
| ACTTGTGG | -0.0585 |
| CCTGTTCA | -0.112 |
| AAATTTTC | 0.223 |
| AAGGATCG | 0.066 |
| CAAGGAGC | -0.245 |
| CCCACAAG | -0.0376 |
| CCGTAGTC | 0.0894 |
| GAATGAGC | -0.0539 |
| GAGCTGGC | -0.143 |
| GAGGACGC | -0.0257 |
| ATTGTGGC | -0.0356 |
| AAACGACC | -0.0302 |
| AAACCTCA | 0.102 |
| GCATGAGC | -0.142 |

| Sequence | PBM E-score |
| --- | --- |
| CGTCCAGC | -0.0398 |
| ACACAGGA | -0.0227 |
| AAAACAGC | 0.101 |
| CCCCGGTA | 0.0232 |
| CACCCCCC | -0.403 |
| AGTATCCG | 0.332 |
| ATATCCGA | 0.343 |
| ACGGAGTC | 0.0797 |
| AACCCTAG | -0.0513 |
| TGTCGCAA | 0.0444 |
| GTCCGATA | 0.234 |
| CACGGACC | 0.192 |
| ATTTAAGG | 0.0545 |
| TGAGGGAA | -0.16 |
| AATCATGG | -0.0724 |
| AATAGTCA | 0.125 |
| AGCAGGCC | -0.0824 |
| AACGTCTC | 0.0227 |
| CTACGCTA | -0.166 |
| GCTCCAAA | -0.0747 |
| ATCTCCGG | 0.435 |
| ATTAATAA | 0.254 |
| ATCCTATG | -0.0991 |
| AACGAGCA | -0.146 |
| TACACGTA | -0.106 |

45 entries from above, with bars between the fields:
Sequence | PBM E-score
CAAACTTC | 0.077
CCCTGGGC | -0.252
CCGGGGCC | 0.238
CCCCCCCC | -0.482
TCGAGACA | -0.0512
AATTAATG | 0.22
ACCTATCC | -0.00171
CACTTAGC | -0.108
ACTTGTGG | -0.0585
CCTGTTCA | -0.112
AAATTTTC | 0.223
AAGGATCG | 0.066
CAAGGAGC | -0.245
CCCACAAG | -0.0376
CCGTAGTC | 0.0894
GAGCTGGC | -0.143
GAGGACGC | -0.0257
ATTGTGGC | -0.0356
AAACCTCA | 0.102
GCATGAGC | -0.142
CGTCCAGC | -0.0398
ACACAGGA | -0.0227
AAAACAGC | 0.101
CCCCGGTA | 0.0232
CACCCCCC | -0.403
AGTATCCG | 0.332
ATATCCGA | 0.343
ACGGAGTC | 0.0797
AACCCTAG | -0.0513
TGTCGCAA | 0.0444
GTCCGATA | 0.234
CACGGACC | 0.192
ATTTAAGG | 0.0545
TGAGGGAA | -0.16
AATCATGG | -0.0724
AATAGTCA | 0.125
AGCAGGCC | -0.0824
AACGTCTC | 0.0227
CTACGCTA | -0.166
GCTCCAAA | -0.0747
ATCTCCGG | 0.435
ATTAATAA | 0.254
ATCCTATG | -0.0991
AACGAGCA | -0.146
TACACGTA | -0.106

Pulled one by one from the entries so far (five):

| Sequence | PBM E-score |
| --- | --- |
| AGCAGGCC | -0.0824 |
| GCTCCAAA | -0.0747 |
| TGAGGGAA | -0.16 |
| CGTCCAGC | -0.0398 |
| TACACGTA | -0.106 |

(next part)

| Sequence | PBM E-score |
| --- | --- |
| AATGAGGT | -0.0317 |
| CCCTACAC | -0.0486 |
| CGTCATCA | -0.122 |
| ATAATAGC | 0.0256 |
| CAACGCAC | -0.0898 |
| CTAGTCTC | -0.174 |
| ATCTCGAA | 0.103 |
| ATTTCTGG | -0.0378 |
| GGAGGATA | 0.00576 |
| CTGTGAGC | -0.0633 |
| CTCTATAC | -0.0989 |
| AGCGCTAA | 0.155 |
| AAGTTAAG | -0.0719 |
| ATTAGTGG | 0.0905 |
| ACCGTTTA | 0.121 |
| AGACCTAA | -0.106 |
| CAATCCCC | -0.0444 |
| TCTAGAAA | 0.123 |
| TAATACGA | 0.0735 |
| AGTCTACA | -0.185 |
| CAACTGTG | -0.0301 |
| AGGGGGCG | -0.204 |
| CTCCAACA | -0.035 |
| CATACGAC | -0.111 |
| ATACTCAA | 0.125 |

| Sequence | PBM E-score |
| --- | --- |
| CATTAGGC | -0.164 |
| AGTTCAAC | 0.102 |
| CATGCCGA | 0.336 |
| ATGCAGTG | -0.0888 |
| AATTCGCT | 0.128 |
| AGCGTGAG | -0.284 |
| ACCTTCCA | -0.103 |
| AGGGCTTA | -0.164 |
| ACGACCTA | -0.04 |
| GGACTCCC | -0.238 |
| AAATACAG | -0.0617 |
| GATATGAC | 0.0731 |
| AATGTGGT | -0.114 |
| CGGACTCA | 0.186 |
| TAACAAGA | 0.126 |
| AATAACCC | 0.12 |
| TATAGATA | 0.0313 |
| CTGGGTCA | -0.101 |
| ATTCAACG | 0.166 |
| ATTGTAAA | 0.232 |
| ACCTATAC | -0.0907 |
| ATGGACTC | -0.162 |
| AGGGGCTA | -0.215 |
| CGTCACTC | -0.143 |
| TCACGCAA | 0.209 |

| Sequence | PBM E-score |
| --- | --- |
| CGTGCCAA | -0.0991 |
| AGTGGTGG | -0.257 |
| GAGCTGTA | -0.104 |
| GGCGGCAC | 0.0696 |
| CCCTGTTA | 0.0846 |
| CATGTGCG | 0.0401 |
| AAATAAAT | 0.34 |
| AGACTAAC | -0.00053 |
| ACCGTAAC | 0.0104 |
| AACCAGAT | 0.053 |
| GGGAGTTA | -0.105 |
| CGGACCAA | 0.343 |
| CGGGTCTC | -0.105 |
| TGCTCGAA | -0.0396 |
| ATAGAATG | 0.0303 |
| CGCGAGCA | -0.0911 |
| CCCTAAAC | -0.139 |
| GTTTCTGA | 0.123 |
| AGTTTTCG | 0.145 |
| ATACTTAG | 0.0154 |
| GGCCTGCA | -0.324 |
| GGGGCAAC | -0.244 |
| CCCTCATA | -0.288 |
| CTAAACGC | 0.0164 |
| TACCACCA | -0.0488 |

| Sequence | PBM E-score |
| --- | --- |
| ATTTCTGA | -0.0713 |
| GCATGGGC | -0.154 |
| AAGCCCCC | -0.281 |
| AAGCGGAC | 0.035 |
| ATCGGGAG | 0.018 |
| ATTCGCTG | 0.0621 |
| AACCGCTT | 0.0486 |
| GACCGCGC | 0.031 |
| CGAGAAAC | 0.0821 |
| ATCGACAC | -0.151 |
| ACGGTGAC | -0.153 |
| CTTCACAA | -0.0692 |
| ACAATGAG | -0.147 |
| CCACGCTC | -0.246 |
| GCGAAGTA | 0.00472 |
| ACCGGGGC | 0.0386 |
| CACGGTGG | -0.254 |
| CTGCCGAC | 0.0291 |
| ACATAAAA | 0.0778 |
| AAATCAGA | 0.137 |
| CCCCGGAA | 0.151 |
| CAACCTGG | -0.079 |
| CCTACCCC | -0.313 |
| ATCTTTCG | 0.00629 |
| AACAGTGG | -0.158 |

| Sequence | PBM E-score |
| --- | --- |
| GATAGTAC | 0.0651 |
| GTCTTTCA | -0.0723 |
| ACCAATCA | 0.0919 |
| ACGTTTGC | -0.15 |
| ACAGACAT | 0.106 |
| TACCATGA | -0.101 |
| AGGGCCCG | 0.0448 |
| CTGATAAG | 0.0801 |
| CAATTAGC | 0.0727 |
| CCGTCATA | 0.177 |
| ACACTTTA | -0.0239 |
| ACGTCGAT | 0.0875 |
| ACTAACTC | -0.00452 |
| ACTTGTCT | 0.0749 |
| AGACGGGA | -0.0825 |
| ATTCTCCA | 0.0664 |
| CCCCCACA | -0.414 |
| CCACGCCC | -0.156 |
| CCCCCAAC | -0.258 |
| GTAGCAGA | 0.123 |
| ACCCCGCG | -0.119 |
| AAGGAAGC | -0.178 |

Reference: the supplement of paper PMC3334620
